Laboratory results taken from PubChem BioAssay AID504467 (National Center for Advancing Translational Sciences (NCATS), 2011).
The campaign covered roughly 330,000 compounds. About 7,700 (2.3%) were called active. This list was built around the results that the source calls inconclusive (neither active nor inactive); the mix of calls is not that of the screen. Calls follow the shape of the dose curve; as a rule, active = well fitted inhibition curve with a large enough effect; inconclusive = small, poorly fitted or top-dose-only effect, or effect the other way; inactive = flat fitted curve, though single readings scatter. Potencies of inconclusive entries are doubtful fits and often do not repeat.

Assay: qHTS screen for small molecules that inhibit ELG1-dependent DNA repair in human embryonic kidney (HEK293T) cells expressing luciferase-tagged ELG1; also: nearly all actives have a fitted effect of over 55% in size
Details: HEK293T ELG1-luciferase reporter, luminescence, 16 h, DNA damage induced by 5-fluorouridine; series mostly up to 46.1 µM
In short: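 Reporter activity after DNA damage by 5-fluorouridine is monitored. Compound-treated cells incubate 16 hr at 37 °C, then ONE-Glo is added for 30 min before luminescence reading.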
Potency is read from the fitted curve at half-maximal effect.

Q: With `CCN(CC(=O)Nc1ccc(OC)cc1)C(=O)CSCc1ccc(C)cc1` as the compound, how does the Potency read?
A: inconclusive: 20.6 µM [inhibitor, partial curve, poor fit]

Q: With `CC1(C)Cc2c(sc3nc(SCC(=O)N4CCOCC4)nc(N)c23)CO1` as the compound, how does the Potency read?
A: inconclusive: 13 µM [activator, single point]

Q: Which Potency does the source give for `COC(=O)c1sc(=S)sc1C(=O)OC` here?
A: inactive

Q: Which Potency does the source give for `CCN(Cc1ccccc1)C(=O)c1cc(S(=O)(=O)N2CCOCC2)ccc1N1CCCC1` here?
A: inactive

Q: For `O=C(COC(=O)c1ccc(F)cc1)Nc1ccc2c(c1)OCO2`, which Potency is on record?
A: inconclusive: 14.6 µM [activator, partial curve, poor fit]

Q: With `CCN(CC)Cc1ccccn1` as the compound, how does the Potency read?
A: inactive

Q: With `CN(C)S(=O)(=O)c1ccc(NC(=O)CN2CCCC2c2ccc3c(c2)OCCCO3)cc1` (stereo not drawn) as the compound, how does the Potency read?
A: inconclusive: 14.6 µM [inhibitor, partial curve, poor fit]

Q: With `O=C(NNc1ncnc2ccccc12)c1cccc(Cl)c1` as the compound, how does the Potency read?
A: inconclusive: 6.51 µM [activator, partial curve]

Q: Which Potency does the source give for `C=CCn1c(=O)/c(=C/c2ccc(Cl)cc2)s/c1=C(/C#N)c1nnc2n1CCCCC2` here?
A: active: 20.6 µM

Q: With `CCC(SC1=NCCS1)C(=O)Nc1nnc(-c2ccccc2OC)s1` (stereo not drawn) as the compound, how does the Potency read?
A: active: 18.4 µM

Q: Which Potency does the source give for `COc1ccc(CCNC(=O)c2nc(-c3cccs3)no2)cc1OC` here?
A: active: 9.2 µM

Q: With `CCOC(=O)C1=C(C)NC(C)=C(C(=O)OCC)C1c1cccc(C)n1` as the compound, how does the Potency read?
A: inconclusive: 29.1 µM [activator, partial curve, poor fit]

Q: Which Potency does the source give for `Cc1ccc(-n2c(-c3ccccc3)cc(=O)nc2C)cc1` here?
A: inactive

Q: Which Potency does the source give for `COc1ccccc1C(=O)N(CCC1CCCN1C)c1nc2ccccc2s1` (stereo not drawn) here?
A: inconclusive: 3.66 µM [activator, full curve]

Q: With `O=C(NNC(=O)c1ccccc1-c1ccccc1C(=O)O)c1cccc([N+](=O)[O-])c1` as the compound, how does the Potency read?
A: inactive

Q: For `CCOc1ccccc1NC(=O)CCNS(=O)(=O)c1cccc2nonc12`, which Potency is on record?
A: inactive

Q: Which Potency does the source give for `CN1CCN(c2nc3c(c(=O)[nH]c(=O)n3C)n2CCSc2nnnn2-c2ccccc2)CC1` here?
A: inactive

Q: For `Cc1ccc(-c2nnn(CC(=O)N(c3ccccc3)C(C(=O)NC3CCCC3)c3ccncc3)n2)o1` (stereo not drawn), which Potency is on record?
A: inactive

Q: With `CCOC(=O)[C@H]1[C@H]2COc3ccccc3[C@@H]2N2C(=O)CN(CC3CCCO3)C(=O)[C@@]12C` (stereo partly drawn) as the compound, how does the Potency read?
A: inconclusive: 18.3 µM [activator, single point]

Q: For `Cc1noc(C)c1N=Nc1ccc(Br)cc1C(=O)O`, which Potency is on record?
A: inconclusive: 20.6 µM [activator, partial curve, poor fit]

Q: For `CCOCc1[nH]c(=S)[nH]c(=O)c1Cc1ccc(OC(C)C)cc1`, which Potency is on record?
A: inactive

Q: Which Potency does the source give for `CC(NC(=S)NC1CCCCC1)C(c1cccs1)N1CCOCC1` (stereo not drawn) here?
A: inactive

Q: Which Potency does the source give for `CCOC(=O)c1[nH]c2cc3c(cc2c1NC(=O)CN1CC(C)CC(C)C1)OCO3` (stereo not drawn) here?
A: inactive

Q: Which Potency does the source give for `COCc1cc(=O)n2[nH]cc(-c3ccccc3)c2n1` here?
A: inconclusive: 35.5 µM [activator, single point]

Q: For `CCOc1ccc(C(=O)C2CCN(CC(=O)Nc3nccs3)CC2)cc1`, which Potency is on record?
A: inconclusive: 29.1 µM [inhibitor, single point]

Q: With `COc1ccccc1-c1cc(C(=O)N/N=C\c2cn(C)nc2C)c2ccccc2n1` as the compound, how does the Potency read?
A: inconclusive: 32.6 µM [inhibitor, single point]

Q: For `Cc1ccnc2c1ccc1c(C)ccnc12`, which Potency is on record?
A: active: 2.31 µM

Q: Which Potency does the source give for `CN(CCO)c1ccc(-c2n[nH]c(=O)c3ccccc23)cc1[N+](=O)[O-]` here?
A: inconclusive: 8.2 µM [inhibitor, partial curve, poor fit]

Q: Which Potency does the source give for `CCOC(=O)CC(=O)CSc1nc(-c2ccc3c(c2)OCO3)cc(C(F)(F)F)c1C#N` here?
A: inactive

Q: With `Cc1cc(CNC(=O)COc2ccc(C)c(C)c2)c2ccccc2n1` as the compound, how does the Potency read?
A: inconclusive: 18.3 µM [inhibitor, partial curve]

Q: Which Potency does the source give for `COc1cc(C)nc(NC(=S)N(C)C(=O)c2ccccc2)n1` here?
A: inactive

Q: For `COc1ccc(NC(=O)NC2(C(=O)N3CCCC(C)C3)CCCCC2)cc1` (stereo not drawn), which Potency is on record?
A: inconclusive: 29.1 µM [inhibitor, partial curve, poor fit]

Q: With `CC(C)OC(=O)/C(=C/c1ccc2c(c1)c1ccccc1n2C)NC(=O)c1ccccc1` as the compound, how does the Potency read?
A: active: 20.6 µM

Q: With `CC(=O)Nc1cccc(NC(=O)c2cc(C)on2)c1` as the compound, how does the Potency read?
A: inconclusive: 20.6 µM [activator, partial curve]

Q: Which Potency does the source give for `CC(=O)Nc1ccc(/C=C(\C#N)C(=O)NCc2ccccc2)cc1` here?
A: inactive

Q: Which Potency does the source give for `CCNS(=O)(=O)c1ccc2c(c1)n(C)c(=O)n2C` here?
A: inactive

Q: For `COC(=O)CNC(=O)/C=C/c1ccc(OC)cc1`, which Potency is on record?
A: inconclusive: 20.6 µM [activator, single point]

Q: For `CCc1nn(CC(=O)NCCc2ccc(S(N)(=O)=O)cc2)c(=O)c2cc3sccc3n12`, which Potency is on record?
A: inconclusive: 29.1 µM [activator, single point]

Q: With `COc1ccc(C2=NOC(C(=O)NCc3ccco3)C2)cc1` (stereo not drawn) as the compound, how does the Potency read?
A: inconclusive: 29.1 µM [activator, single point]

Q: For `CC(C)Nc1nc(Cl)nc(NCCOc2ccccc2)n1`, which Potency is on record?
A: inconclusive: 13 µM [activator, partial curve]

Q: For `CC1CCCN(C(=O)c2ccc(S(=O)(=O)Nc3ccccc3Cl)cc2)C1` (stereo not drawn), which Potency is on record?
A: inconclusive: 20.6 µM [inhibitor, partial curve]

Q: With `NC(=O)c1cc2ccc(O)cc2oc1=Nc1ccccc1` as the compound, how does the Potency read?
A: active: 2.31 µM

Q: With `C=CCn1cccc(C(=O)Nc2ccc(OC)c(Cl)c2)c1=O` as the compound, how does the Potency read?
A: inconclusive: 8.2 µM [activator, partial curve]

Q: For `COc1ccc(CCNC(=O)Nc2ccccc2[N+](=O)[O-])cc1`, which Potency is on record?
A: inconclusive: 14.6 µM [activator, partial curve]

Q: Which Potency does the source give for `Cc1nc(NC(=O)CSc2nnc(-c3ccc4c(c3)OCO4)o2)c(Cl)cc1Cl` here?
A: inconclusive: 23.1 µM [activator, single point]

Q: For `COc1cccc(OCc2nc3ncc(Br)cc3[nH]2)c1`, which Potency is on record?
A: inconclusive: 29.1 µM [activator, single point]

Q: Which Potency does the source give for `CC1(C)CC(=O)C2=C(C1)OC(N)=C(C#N)C2CCc1ccccc1` (stereo not drawn) here?
A: inactive

Q: For `CC1(C)CNC(=O)c2sc(NC(=O)c3ccccc3Cl)nc2C1`, which Potency is on record?
A: inconclusive: 32.6 µM [inhibitor, partial curve, poor fit]

Q: For `CCOc1ccc(S(=O)(=O)NC2CCCC2)cc1`, which Potency is on record?
A: inactive

Q: With `COCCN(CCOC)c1nc(-c2ccc(C)cc2)nc2ccccc12` as the compound, how does the Potency read?
A: inconclusive: 16.4 µM [inhibitor, partial curve]

Q: With `O=C(CN1C(=O)COc2ccccc21)N(Cc1ccccc1)Cc1ccccn1` as the compound, how does the Potency read?
A: inactive

Q: With `Cc1ccc(S(=O)(=O)NCc2cn3ccccc3n2)c(C)c1` as the compound, how does the Potency read?
A: inactive

Q: For `COc1ccccc1CCNC(=O)C(=O)NCC1OCCN1S(=O)(=O)c1ccc2c(c1)OCCO2` (stereo not drawn), which Potency is on record?
A: inconclusive: 10.3 µM [inhibitor, partial curve, poor fit]

Q: Which Potency does the source give for `Cc1ccccc1-n1cnnc1SCC(=O)Nc1cccnc1Cl` here?
A: inconclusive: 0.116 µM [inhibitor, full curve, poor fit]

Q: With `CC(C)(Oc1ccc(Cl)cc1)C(=O)Nc1c2c(nn1C(C)(C)C)CS(=O)(=O)C2` as the compound, how does the Potency read?
A: inactive

Q: For `Cc1cs/c(=N\N=C\c2ccccc2)n1Cc1ccco1`, which Potency is on record?
A: inconclusive: 23.1 µM [activator, single point]

Q: Which Potency does the source give for `C/C(=N\N1CCN(c2ccccc2)CC1)c1ccco1` here?
A: inconclusive: 29.1 µM [activator, single point]

Q: For `COC(=O)c1ccccc1NC(=O)c1cnn2c(C(F)F)cc(C3CC3)nc12`, which Potency is on record?
A: inconclusive: 13 µM [inhibitor, partial curve]

Q: Which Potency does the source give for `O=C(Cc1ccccc1)NCc1ccc2c(c1)OCO2` here?
A: inconclusive: 18.4 µM [activator, partial curve]

Q: For `Cc1nnc(Cl)c2nn(-c3ccccc3F)c(C)c12`, which Potency is on record?
A: inconclusive: 11.6 µM [inhibitor, partial curve, poor fit]

Q: For `CCOC(=O)CN1C(=O)NC2(CCCc3ccccc32)C1=O` (stereo not drawn), which Potency is on record?
A: inactive

Q: For `Cc1cc(C)c(C(=O)OCC(=O)Nc2cccc(S(=O)(=O)N3CCCCC3)c2)c(C)c1`, which Potency is on record?
A: inconclusive: 23.1 µM [inhibitor, single point]

Q: Which Potency does the source give for `O=C(CSc1nnc(-c2cccnc2)n1Cc1ccccc1)NCc1ccccc1` here?
A: inconclusive: 29.1 µM [inhibitor, single point]

Q: Which Potency does the source give for `CCOc1ccc2oc(C(=O)Nc3cc(C)ccn3)c(C)c2c1` here?
A: inconclusive: 1.46 µM [activator, partial curve]

Q: For `CC(C)OC(=O)c1ccc(NC(=S)NC(=O)c2cncc(Br)c2)cc1`, which Potency is on record?
A: inactive

Q: With `COc1ccc(C(=O)NC(C(=O)OCC(=O)Nc2sccc2C(N)=O)C(C)C)cc1` (stereo not drawn) as the compound, how does the Potency read?
A: inconclusive: 20.6 µM [inhibitor, single point]

Q: With `Fc1ccc(NC(=S)Nc2ccc3nccnc3c2)cc1` as the compound, how does the Potency read?
A: inactive

Q: With `CCOc1ccc(CCNC(=O)COC(=O)/C=C/c2ccc(OCC#N)c(OC)c2)cc1OCC` as the compound, how does the Potency read?
A: inactive

Q: With `Cc1cccc(NC(=O)CSCC(=O)N=c2sccn2C)c1` as the compound, how does the Potency read?
A: inactive

Q: With `CC(C)C[C@H](NC(=O)c1nc[nH]c1C(=O)NCC(=O)OC(C)(C)C)C(=O)OC(C)(C)C` as the compound, how does the Potency read?
A: inconclusive: 25.9 µM [inhibitor, partial curve, poor fit]

Q: Which Potency does the source give for `COc1cccc(/C=C/C(=O)NNC(=O)c2ccco2)c1OC` here?
A: inconclusive: 6.51 µM [activator, partial curve]

Q: Which Potency does the source give for `COc1cc(OC)c(C(=O)NNC(=O)c2ccccc2-n2cccc2)cc1OC` here?
A: inconclusive: 29.1 µM [inhibitor, partial curve, poor fit]

Q: Which Potency does the source give for `CC1=Nc2ccccc2/C1=C/c1sc(=O)n(CC(=O)N2CCCC2)c1O` here?
A: inactive
